Assay results published in patent US20160279250, “METHODS FOR STRUCTURAL DETERMINATION OF SELENIUM DERIVATIZED NUCLEIC ACID COMPLEXES” (SeNA Research ,Inc., published 2016).
Changes are numbered by the printed parent chain. Where a protein sequence is shown, tags need not be part of it. For part of these data: For at least one entry, the source does not settle the construct or the ends of the probe.

Experiments:
[1] = target: T1, RNase H (D132N, inactive mutant) (Bacillus halodurans) (UniProt Q9KEI9); assay: structure; settings: purified recombinant protein, protein details: expressed in BL21(DE3) pLysE, PDB 3TWH, DNA:RNA hybrid
T1 sequence (looked up, limits assumed): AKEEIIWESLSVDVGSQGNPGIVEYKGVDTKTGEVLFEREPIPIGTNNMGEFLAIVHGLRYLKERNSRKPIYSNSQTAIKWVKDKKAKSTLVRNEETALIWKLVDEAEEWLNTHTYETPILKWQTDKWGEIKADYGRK

[2] = target: T2, RNase H truncated (TR, 59-196) (Bacillus halodurans) (UniProt Q9KEI9); assay: enzyme reaction in vitro; settings: truncated RNase H (59-196) gave similar results; purified recombinant protein; label: 32P RNA; DNA:RNA hybrid
T2 sequence (looked up): T1 sequence (looked up, limits assumed) with N74D

ATGTCG / UCGACA [native DNA-N/RNA duplex]
binding result ([1]; CITED Nowotny and Yang 2006, PDB 2G8U, 2.70 A, product-type complex, label: 32P RNA): binds | activity on this sequence [2]: active

GAATCAGGTGTC / GACACCUGAUUC [12-bp RNA/DNA duplex (1ZBI)]
binding result ([1]; CITED Nowotny 2005, PDB 1ZBI, 1.85 A, two RNase H bound per duplex): binds
